Test results as given in US20060234378A1, “Molecular switch regulating neurogenesis” (The Salk Institute For Biological Studies, priority 2005, published 2006).
Results are given in words; binding and its absence hold for the method and conditions named. Binding seen in cells or lysates may run through a third protein. Some binding calls cover weakened binding; strength is not graded here. Blank lines part the entries; values can stand above or below the molecule they belong to.

Amino acid sequences for entries named in this document (tags omitted). Residues count along the entry.
UniProt Q9QXN1: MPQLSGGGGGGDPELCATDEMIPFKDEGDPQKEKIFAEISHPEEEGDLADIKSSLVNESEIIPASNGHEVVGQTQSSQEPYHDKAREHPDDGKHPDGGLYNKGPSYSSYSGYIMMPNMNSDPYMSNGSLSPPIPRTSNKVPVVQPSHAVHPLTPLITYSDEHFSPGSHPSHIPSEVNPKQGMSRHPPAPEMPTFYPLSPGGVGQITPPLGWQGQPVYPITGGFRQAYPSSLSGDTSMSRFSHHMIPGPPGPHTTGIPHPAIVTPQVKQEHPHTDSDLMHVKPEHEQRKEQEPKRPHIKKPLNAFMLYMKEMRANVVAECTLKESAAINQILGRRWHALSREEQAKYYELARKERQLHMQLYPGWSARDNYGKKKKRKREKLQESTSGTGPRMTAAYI
UniProt Q6JHU9, residues 2-2442: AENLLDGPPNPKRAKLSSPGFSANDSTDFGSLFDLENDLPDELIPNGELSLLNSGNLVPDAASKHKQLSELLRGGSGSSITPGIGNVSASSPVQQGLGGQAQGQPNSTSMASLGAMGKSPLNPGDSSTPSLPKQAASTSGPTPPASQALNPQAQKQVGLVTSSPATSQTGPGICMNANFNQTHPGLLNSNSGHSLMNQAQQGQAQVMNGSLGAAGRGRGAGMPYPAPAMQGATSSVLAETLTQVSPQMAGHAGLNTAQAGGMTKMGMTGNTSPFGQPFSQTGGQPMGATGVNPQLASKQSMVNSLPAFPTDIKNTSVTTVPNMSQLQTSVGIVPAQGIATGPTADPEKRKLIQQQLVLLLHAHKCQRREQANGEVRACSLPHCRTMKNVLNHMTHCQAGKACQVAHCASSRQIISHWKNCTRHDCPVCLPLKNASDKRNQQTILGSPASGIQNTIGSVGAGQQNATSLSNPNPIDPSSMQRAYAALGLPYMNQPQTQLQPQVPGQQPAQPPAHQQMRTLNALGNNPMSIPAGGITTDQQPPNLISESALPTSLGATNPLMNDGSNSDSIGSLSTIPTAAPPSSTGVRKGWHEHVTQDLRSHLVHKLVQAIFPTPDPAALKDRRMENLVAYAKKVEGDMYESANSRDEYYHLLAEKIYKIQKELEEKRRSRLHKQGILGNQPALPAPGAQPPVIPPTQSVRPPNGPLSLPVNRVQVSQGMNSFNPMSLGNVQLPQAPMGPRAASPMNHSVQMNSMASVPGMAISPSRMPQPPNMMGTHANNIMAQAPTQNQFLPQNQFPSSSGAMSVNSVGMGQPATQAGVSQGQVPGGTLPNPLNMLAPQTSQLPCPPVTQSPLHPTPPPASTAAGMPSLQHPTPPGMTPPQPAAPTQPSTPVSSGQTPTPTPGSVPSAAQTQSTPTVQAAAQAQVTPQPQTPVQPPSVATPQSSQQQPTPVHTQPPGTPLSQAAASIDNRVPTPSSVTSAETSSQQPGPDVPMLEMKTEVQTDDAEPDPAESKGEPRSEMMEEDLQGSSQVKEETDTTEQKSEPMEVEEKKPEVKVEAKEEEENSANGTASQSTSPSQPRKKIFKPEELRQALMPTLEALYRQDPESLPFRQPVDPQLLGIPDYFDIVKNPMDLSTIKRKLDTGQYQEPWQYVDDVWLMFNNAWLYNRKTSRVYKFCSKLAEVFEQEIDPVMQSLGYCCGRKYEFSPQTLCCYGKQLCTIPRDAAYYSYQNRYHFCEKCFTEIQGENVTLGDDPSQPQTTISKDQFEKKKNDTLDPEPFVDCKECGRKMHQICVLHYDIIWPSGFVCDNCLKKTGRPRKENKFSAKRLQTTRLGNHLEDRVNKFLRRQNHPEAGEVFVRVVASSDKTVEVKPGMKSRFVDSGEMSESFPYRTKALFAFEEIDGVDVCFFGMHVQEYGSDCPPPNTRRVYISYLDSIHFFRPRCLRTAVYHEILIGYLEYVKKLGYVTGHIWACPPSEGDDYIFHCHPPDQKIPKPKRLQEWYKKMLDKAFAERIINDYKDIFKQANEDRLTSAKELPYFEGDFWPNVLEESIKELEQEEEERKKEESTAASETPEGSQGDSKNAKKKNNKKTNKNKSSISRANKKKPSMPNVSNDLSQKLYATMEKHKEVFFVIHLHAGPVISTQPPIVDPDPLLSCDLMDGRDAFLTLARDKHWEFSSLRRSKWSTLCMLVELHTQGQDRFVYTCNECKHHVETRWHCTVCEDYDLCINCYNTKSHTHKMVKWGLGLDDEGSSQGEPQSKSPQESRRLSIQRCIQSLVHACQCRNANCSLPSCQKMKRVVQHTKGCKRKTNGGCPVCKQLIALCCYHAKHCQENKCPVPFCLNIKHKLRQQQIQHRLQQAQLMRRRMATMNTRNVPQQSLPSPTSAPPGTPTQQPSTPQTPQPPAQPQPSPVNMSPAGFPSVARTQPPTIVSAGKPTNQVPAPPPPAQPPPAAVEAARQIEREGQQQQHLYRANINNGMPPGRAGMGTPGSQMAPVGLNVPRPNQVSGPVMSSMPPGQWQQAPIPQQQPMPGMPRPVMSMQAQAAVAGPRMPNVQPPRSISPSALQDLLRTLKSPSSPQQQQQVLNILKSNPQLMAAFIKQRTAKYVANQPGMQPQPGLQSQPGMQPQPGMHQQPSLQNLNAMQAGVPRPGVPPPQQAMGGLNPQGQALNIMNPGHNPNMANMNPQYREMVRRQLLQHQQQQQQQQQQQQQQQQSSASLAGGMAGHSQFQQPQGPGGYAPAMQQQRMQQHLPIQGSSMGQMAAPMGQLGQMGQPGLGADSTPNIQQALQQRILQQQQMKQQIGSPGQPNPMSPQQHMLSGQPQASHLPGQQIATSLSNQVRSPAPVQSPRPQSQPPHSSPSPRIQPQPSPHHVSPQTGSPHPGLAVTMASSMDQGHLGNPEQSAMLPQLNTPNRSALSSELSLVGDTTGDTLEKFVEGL

Key:
[1] = target: histone deacetylase-1 (rat) (UniProt Q4QQW4); experiment: co-immunoprecipitation from nuclear extracts of neural stem cells, protein G beads, Western blot
[2] = target: LEF1 (rat) (UniProt Q9QXN1); experiment: co-immunoprecipitation from nuclear extracts of differentiating cells, protein G beads, Western blot
[3] = target: CREB-binding protein (rat) (UniProt Q6JHU9); experiment: as above

binding [1]: binds
Molecule: C-terminal-binding protein-1 (from UniProt Q9Z2F5 1-430)

binding [2]: binds | binding [3]: binds
B1: β-catenin (protein, rat, UniProt Q9WU82 2-781, looked up)
chain: ATQADLMELDMAMEPDRKAAVSHWQQQSYLDSGIHSGATTTAPSLSGKGNPEEEDVDTSQVLYEWEQGFSQSFTQEQVADIDGQYAMTRAQRVRAAMFPETLDEGMQIPSTQFDAAHPTNVQRLAEPSQMLKHAVVNLINYQDDAELATRAIPELTKLLNDEDQVVVNKAAVMVHQLSKKEASRHAIMRSPQMVSAIVRTMQNTNDVETARCTAGTLHNLSHHREGLLAIFKSGGIPALVKMLGSPVDSVLFYAITTLHNLLLHQEGAKMAVRLAGGLQKMVALLNKTNVKFLAITTDCLQILAYGNQESKLIILASGGPQALVNIMRTYTYEKLLWTTSRVLKVLSVCSSNKPAIVEAGGMQALGPHLTDPSQRLVQNCLWTLRNLSDAATKQEGMEGLLGTLVQLLGSDDINVVTCAAGILSNLTCNNYKNKMMVCQVGGIEALVRTVLRAGDREDITEPAICALRHLTSRHQEAEMAQNAVRLHYGLPVVVKLLHPPSHWPLIKATVGLIRNLALCPANHAPLREQGAIPRLVQLLVRAHQDTQRRTSMGGTQQQFVEGVRMEEIVEGCTGALHILARDVHNRIVIRGLNTIPLFVQLLYSPIENIQRVAAGVLCELAQDKEAAEAIEAEGATAPLTELLHSRNEGVATYAAAVLFRMSEDKPQDYKKRLSVELTSSLFRTEPMAWNETADLGLDIGAQGEALGYRQDDPSYRSFHSGGYGQDALGMDPMMEHEMGGHHPGADYPVDGLPDLGHAQDLMDGLPPGDSNQLAWFDTDL
